The list shows a part of the results.
The targets below were run with C1COCCN1CCN2C3=CC=CC=C3N=C2NC(=O)C4=CC(=CC=C4)[N+](=O)[O-] [IRAK-1-4 Inhibitor I] (assay: log2 fold change, soluble protein after heating vs DMSO (PISA); higher = thermal stabilisation; K562 lysate, 10 uM; active = over 0.2 and 3.5 SD of the protein, either way, in both replicates (recomputed)).
Outline: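 Log-two fold change in thermal stability relative to solvent controls is reported from duplicates. For each sample, crude K562 extract from dounce-homogenised pellets in PBS pH 7.4 with 1 mM MgCl2, at 1 mg/mL protein, was treated with 10 μM compound for 30 min. Aliquots heated for 3 min across 48°C-58°C were pooled, brought to 0.5% NP-40 at 4°C and cleared at 21,000xg for 90 min. The supernatant was quantified by TMTpro 16plex LC-MS/MS with channel sums equalised.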

Protein sequences, listed by entry. Tags and fused reporters are not part of them. Lines headed by an entry give the natural chain unless they say otherwise; changes in a name come on top.
UniProt P30837: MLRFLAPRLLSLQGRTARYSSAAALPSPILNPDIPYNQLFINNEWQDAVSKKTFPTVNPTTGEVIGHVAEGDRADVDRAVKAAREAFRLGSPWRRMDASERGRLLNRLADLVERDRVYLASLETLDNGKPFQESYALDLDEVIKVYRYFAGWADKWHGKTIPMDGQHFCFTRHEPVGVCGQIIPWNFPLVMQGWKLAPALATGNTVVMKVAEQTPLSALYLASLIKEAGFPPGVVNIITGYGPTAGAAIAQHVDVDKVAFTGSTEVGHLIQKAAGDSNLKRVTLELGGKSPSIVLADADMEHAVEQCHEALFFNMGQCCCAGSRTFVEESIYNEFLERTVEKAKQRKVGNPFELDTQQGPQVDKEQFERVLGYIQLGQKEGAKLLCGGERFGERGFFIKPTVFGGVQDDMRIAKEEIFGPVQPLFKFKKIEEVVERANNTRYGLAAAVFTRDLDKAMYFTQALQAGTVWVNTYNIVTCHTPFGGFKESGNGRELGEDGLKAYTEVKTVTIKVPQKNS
UniProt Q9UPM8: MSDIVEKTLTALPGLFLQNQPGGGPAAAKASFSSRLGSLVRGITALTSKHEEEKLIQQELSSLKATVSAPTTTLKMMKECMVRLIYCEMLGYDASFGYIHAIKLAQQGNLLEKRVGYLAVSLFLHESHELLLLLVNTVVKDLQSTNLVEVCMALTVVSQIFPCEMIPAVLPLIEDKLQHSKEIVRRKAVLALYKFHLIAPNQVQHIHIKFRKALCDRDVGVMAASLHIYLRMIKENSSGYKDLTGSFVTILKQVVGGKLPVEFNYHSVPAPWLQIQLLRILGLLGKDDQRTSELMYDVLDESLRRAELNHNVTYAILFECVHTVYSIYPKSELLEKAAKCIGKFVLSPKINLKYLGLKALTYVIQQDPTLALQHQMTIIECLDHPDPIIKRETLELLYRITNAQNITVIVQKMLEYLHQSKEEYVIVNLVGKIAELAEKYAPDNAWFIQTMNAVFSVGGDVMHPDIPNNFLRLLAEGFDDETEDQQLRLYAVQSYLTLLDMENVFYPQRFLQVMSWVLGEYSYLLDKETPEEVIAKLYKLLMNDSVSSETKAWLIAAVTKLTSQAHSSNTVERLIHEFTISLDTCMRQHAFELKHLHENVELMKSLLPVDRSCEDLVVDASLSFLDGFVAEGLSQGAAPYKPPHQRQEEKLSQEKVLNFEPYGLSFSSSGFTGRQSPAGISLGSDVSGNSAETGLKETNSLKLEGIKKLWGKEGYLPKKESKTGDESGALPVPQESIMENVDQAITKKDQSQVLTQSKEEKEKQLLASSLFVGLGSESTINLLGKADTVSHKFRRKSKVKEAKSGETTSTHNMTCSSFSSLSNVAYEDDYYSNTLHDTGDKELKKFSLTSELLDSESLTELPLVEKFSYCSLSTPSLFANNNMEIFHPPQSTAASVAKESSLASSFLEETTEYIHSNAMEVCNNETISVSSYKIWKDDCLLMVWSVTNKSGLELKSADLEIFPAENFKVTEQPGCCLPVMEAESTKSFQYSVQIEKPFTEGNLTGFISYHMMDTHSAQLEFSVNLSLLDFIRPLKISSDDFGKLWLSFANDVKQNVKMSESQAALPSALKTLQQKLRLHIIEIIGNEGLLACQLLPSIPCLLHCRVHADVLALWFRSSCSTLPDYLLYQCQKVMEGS
UniProt P63010: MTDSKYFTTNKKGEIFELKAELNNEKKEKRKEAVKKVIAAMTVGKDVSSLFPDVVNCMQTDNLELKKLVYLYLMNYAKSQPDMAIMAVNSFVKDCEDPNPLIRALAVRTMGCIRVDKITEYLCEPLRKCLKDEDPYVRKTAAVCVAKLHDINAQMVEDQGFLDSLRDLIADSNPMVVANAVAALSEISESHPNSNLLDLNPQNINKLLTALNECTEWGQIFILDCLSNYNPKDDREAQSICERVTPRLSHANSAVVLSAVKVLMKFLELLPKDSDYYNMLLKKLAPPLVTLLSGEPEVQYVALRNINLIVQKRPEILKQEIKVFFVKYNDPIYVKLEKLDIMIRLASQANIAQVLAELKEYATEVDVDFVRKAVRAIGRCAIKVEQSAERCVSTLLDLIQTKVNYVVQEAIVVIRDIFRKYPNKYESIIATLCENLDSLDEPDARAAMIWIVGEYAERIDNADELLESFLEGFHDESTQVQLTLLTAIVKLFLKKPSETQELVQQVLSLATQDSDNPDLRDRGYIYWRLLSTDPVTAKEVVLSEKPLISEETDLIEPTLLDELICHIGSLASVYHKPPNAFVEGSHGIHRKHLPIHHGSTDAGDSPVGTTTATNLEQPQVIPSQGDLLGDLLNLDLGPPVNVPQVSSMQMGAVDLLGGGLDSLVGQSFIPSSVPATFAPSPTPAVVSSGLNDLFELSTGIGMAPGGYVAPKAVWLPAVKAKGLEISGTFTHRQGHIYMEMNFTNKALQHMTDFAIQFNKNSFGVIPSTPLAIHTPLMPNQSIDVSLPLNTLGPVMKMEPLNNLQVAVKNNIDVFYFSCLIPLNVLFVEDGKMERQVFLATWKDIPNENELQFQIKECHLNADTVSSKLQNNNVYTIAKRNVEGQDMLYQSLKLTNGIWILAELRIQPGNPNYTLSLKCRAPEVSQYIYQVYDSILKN
UniProt Q9Y2T2: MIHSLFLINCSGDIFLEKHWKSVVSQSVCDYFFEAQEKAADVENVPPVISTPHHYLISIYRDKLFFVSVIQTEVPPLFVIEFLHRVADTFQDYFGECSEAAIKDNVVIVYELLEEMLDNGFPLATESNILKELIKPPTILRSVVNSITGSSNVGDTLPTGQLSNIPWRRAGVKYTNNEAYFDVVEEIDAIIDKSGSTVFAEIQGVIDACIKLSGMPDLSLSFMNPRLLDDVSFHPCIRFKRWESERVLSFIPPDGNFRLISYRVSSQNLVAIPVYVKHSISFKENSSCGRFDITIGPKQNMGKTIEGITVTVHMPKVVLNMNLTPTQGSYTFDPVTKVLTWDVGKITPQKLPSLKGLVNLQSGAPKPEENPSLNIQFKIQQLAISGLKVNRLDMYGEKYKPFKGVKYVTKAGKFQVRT
UniProt P53680: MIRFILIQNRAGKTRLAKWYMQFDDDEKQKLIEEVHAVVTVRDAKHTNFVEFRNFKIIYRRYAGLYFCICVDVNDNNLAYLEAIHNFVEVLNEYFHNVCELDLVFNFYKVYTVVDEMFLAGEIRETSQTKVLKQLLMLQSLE
UniProt P05091: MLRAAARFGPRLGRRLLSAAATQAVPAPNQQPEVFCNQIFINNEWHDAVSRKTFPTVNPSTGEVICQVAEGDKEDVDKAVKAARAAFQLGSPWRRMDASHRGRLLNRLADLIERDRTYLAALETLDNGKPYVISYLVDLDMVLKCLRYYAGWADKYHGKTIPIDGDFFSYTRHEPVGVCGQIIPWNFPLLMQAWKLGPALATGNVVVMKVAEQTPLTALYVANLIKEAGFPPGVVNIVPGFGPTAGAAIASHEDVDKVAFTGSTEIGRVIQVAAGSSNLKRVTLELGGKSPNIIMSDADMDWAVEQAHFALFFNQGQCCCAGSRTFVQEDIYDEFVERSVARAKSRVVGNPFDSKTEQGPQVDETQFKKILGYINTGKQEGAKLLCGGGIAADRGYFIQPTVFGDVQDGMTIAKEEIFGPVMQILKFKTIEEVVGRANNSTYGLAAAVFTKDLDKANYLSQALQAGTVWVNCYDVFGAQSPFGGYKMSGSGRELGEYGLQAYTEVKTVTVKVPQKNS
UniProt Q96NW4, whole entry, looked up: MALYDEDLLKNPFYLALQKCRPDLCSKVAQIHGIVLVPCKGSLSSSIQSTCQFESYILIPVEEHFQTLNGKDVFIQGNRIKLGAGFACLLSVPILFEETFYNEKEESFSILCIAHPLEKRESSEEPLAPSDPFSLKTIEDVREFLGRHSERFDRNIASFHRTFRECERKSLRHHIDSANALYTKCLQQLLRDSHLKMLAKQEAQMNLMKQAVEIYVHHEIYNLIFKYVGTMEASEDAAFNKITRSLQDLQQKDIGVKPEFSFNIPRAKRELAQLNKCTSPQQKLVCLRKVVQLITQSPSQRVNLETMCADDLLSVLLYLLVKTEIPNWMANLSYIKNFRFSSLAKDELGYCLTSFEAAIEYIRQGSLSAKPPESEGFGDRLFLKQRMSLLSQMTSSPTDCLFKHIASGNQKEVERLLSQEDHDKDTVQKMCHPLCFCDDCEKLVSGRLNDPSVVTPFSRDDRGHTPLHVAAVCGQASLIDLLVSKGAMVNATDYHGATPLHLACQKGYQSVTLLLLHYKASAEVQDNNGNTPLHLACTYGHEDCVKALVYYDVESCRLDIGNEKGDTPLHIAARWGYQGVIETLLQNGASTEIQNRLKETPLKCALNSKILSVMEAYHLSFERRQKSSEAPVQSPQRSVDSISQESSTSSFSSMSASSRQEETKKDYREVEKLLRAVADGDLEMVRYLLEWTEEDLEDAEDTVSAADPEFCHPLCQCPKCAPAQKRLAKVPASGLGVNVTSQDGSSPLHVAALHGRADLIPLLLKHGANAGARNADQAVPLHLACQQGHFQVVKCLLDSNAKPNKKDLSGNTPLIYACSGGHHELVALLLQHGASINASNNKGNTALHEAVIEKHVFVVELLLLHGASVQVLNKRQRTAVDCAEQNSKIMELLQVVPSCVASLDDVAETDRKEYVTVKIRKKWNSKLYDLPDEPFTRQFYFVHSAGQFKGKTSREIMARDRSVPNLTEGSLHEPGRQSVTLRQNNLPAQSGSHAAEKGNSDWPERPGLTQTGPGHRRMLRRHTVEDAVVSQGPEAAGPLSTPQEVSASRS
UniProt Q92688: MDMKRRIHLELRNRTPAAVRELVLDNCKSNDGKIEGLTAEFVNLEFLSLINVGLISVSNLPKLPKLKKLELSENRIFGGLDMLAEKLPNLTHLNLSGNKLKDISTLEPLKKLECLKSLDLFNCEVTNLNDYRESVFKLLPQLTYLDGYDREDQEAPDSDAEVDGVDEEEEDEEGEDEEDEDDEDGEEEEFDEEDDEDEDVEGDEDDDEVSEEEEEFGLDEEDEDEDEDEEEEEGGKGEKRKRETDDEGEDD
UniProt P09972: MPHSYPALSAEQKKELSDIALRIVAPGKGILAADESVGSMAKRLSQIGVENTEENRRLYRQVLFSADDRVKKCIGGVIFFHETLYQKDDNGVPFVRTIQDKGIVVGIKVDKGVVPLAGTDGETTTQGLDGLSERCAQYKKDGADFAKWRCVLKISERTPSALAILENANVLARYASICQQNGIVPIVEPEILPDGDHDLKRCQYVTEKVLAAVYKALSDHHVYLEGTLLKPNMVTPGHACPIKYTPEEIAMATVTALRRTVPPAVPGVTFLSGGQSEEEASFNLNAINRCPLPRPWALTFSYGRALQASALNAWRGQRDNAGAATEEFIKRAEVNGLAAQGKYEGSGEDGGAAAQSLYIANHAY
UniProt Q9Y6B7: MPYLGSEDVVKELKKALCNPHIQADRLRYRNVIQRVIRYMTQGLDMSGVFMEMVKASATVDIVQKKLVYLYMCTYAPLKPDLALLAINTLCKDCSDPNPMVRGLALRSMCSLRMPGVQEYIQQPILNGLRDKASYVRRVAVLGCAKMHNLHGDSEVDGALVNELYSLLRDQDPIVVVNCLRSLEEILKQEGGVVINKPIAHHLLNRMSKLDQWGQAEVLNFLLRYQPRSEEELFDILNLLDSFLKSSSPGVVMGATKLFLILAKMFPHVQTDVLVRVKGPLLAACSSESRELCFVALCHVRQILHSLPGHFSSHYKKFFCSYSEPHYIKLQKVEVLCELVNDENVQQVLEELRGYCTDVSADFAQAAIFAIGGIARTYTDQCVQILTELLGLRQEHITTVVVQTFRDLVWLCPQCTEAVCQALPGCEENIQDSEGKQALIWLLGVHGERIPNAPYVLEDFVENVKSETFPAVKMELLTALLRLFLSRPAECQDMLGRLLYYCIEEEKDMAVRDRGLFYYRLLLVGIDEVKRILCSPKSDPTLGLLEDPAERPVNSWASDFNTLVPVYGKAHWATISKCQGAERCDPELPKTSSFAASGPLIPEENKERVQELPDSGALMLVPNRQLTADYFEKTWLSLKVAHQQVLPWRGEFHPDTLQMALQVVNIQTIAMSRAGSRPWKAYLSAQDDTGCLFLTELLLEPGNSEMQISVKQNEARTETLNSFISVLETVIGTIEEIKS
UniProt P61966: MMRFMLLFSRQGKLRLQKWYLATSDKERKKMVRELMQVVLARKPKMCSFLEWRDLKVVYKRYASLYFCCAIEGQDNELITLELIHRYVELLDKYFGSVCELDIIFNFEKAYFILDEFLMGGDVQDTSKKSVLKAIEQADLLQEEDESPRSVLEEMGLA

log2 fold change, inactive:
ANKRD54 (UniProt Q6NXT1) 0.003
AP1S2 isoform 2 (UniProt P56377) 0.003
ALDH1A1 (UniProt P00352) -0.029
ALDH6A1 (UniProt Q02252) 0.024
ANXA11 (UniProt P50995) 0.006
ANO6 (UniProt Q4KMQ2) 0.01
ALDH1B1 (UniProt P30837) 0.038
AP4E1 (UniProt Q9UPM8) 0.012
ALG12 (UniProt Q9BV10) 0.04
ANKFY1 isoform 4 (UniProt Q9P2R3) 0.001
ANKRD52 (UniProt Q8NB46) 0.051
AP3M2 (UniProt P53677) -0.002
ALYREF (UniProt Q86V81) -0.012
ANXA7 (UniProt P20073) -0.004
AKT1S1 isoform 3 (UniProt Q96B36) -0.02
AMPD3 isoform 4 (UniProt Q01432) 0.015
AP2B1 isoform 2 (UniProt P63010) 0.011
ALKBH8 isoform 4 (UniProt Q96BT7) 0.04
AP3M1 (UniProt Q9Y2T2) -0.014
ANXA2 isoform 2 (UniProt P07355) -0.01
ANXA6 (UniProt P08133) 0.034
ALDH4A1 (UniProt P30038) -0.06
AP2S1 (UniProt P53680) -0.01
ALDH2 (UniProt P05091) 0.003
ANKRD27 (UniProt Q96NW4) 0.014
ANP32B (UniProt Q92688) -0.007
ANXA3 (UniProt P12429) -0.085
ALDOC (UniProt P09972) 0.008
AP4B1 (UniProt Q9Y6B7) 0.013
ANLN (UniProt Q9NQW6) -0.017
AP1S1 (UniProt P61966) -0.002
ANGEL2 (UniProt Q5VTE6) 0.028
AP2A1 (UniProt O95782) 0.034

Nothing new here: entries from further up.
log2 fold change, inactive:
ALKBH8 isoform 4 (UniProt Q96BT7) 0.04
AP3M1 (UniProt Q9Y2T2) -0.014
ANXA2 isoform 2 (UniProt P07355) -0.01
ANXA6 (UniProt P08133) 0.034
ALDH4A1 (UniProt P30038) -0.06
AP2S1 (UniProt P53680) -0.01
